{
  "sequences": {"note": "Chains of the proteins cited; added tags and fusions are not shown. Lines headed by an entry give the natural chain unless they say otherwise; changes in a name come on top.", "UniProt P18054": "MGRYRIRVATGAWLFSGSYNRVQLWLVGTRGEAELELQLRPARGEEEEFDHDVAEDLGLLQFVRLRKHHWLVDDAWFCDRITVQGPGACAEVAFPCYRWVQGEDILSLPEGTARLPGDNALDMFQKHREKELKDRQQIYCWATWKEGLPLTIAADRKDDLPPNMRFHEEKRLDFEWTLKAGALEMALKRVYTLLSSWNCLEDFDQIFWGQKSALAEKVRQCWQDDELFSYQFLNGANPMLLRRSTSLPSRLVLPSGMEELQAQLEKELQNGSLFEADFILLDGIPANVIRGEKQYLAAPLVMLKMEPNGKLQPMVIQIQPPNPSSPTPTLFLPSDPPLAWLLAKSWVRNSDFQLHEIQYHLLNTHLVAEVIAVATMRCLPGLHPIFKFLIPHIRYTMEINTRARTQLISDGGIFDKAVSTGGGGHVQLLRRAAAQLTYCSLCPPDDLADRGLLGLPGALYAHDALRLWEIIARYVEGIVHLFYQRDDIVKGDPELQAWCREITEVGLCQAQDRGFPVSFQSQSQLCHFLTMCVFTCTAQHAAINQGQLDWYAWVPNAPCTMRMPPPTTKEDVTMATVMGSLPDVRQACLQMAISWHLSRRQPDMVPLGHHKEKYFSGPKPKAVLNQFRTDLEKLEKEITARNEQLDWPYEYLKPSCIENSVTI"},
  "source": "PubChem BioAssay AID1671190",
  "about": "(National Center for Advancing Translational Sciences (NCATS), 2021)",
  "note": "About 6,100 (1.1%) of roughly 580,000 compounds were called active. Inconclusive results, whose numbers are uncertain, are shown with a selection of clear calls. Calls come from the whole dose curve; as a rule, active = well fitted inhibition curve with a large enough effect; inconclusive = small, poorly fitted or top-dose-only effect, or another doubt; inactive = no such curve, though single readings can be large or run the other way. A potency beside an inconclusive call is a rough fit, not a confirmed value. Potency is the fitted concentration of half-maximal effect.",
  "data": [
    {"molecular_target": "Polyunsaturated fatty acid lipoxygenase ALOX12 (Homo sapiens) (UniProt P18054)", "experiment": "Primary qHTS assay for inhibitors of human arachidonate 12S-lipoxygenase (ALOX12): Round 2", "conditions": "purified 12hLO, xylenol orange hydroperoxide absorbance; series mostly up to 108 µM", "summary_of_the_method": "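Hydroperoxide product was detected by ferrous iron/xylenol orange as the 573 to 405 nm absorbance ratio. Arachidonic acid at 40 uM (final) was turned over for 30 min at room temperature by 150 nM human 12hLO, pH 7.0 Hepes buffer, after 15 min compound preincubation.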", "values": [
      {"compound": "C/C(=N/Nc1ccc([N+](=O)[O-])cc1)c1ccccn1", "Potency": "inconclusive: 50.1 µM [inhibitor, partial curve, poor fit]"},
      {"compound": "O=C(c1ccco1)N1CCN(C(=O)C2CCCN(c3nnc(N4CCCC4=O)s3)C2)CC1", "note": "(centres undefined)", "Potency": "inactive"},
      {"compound": "S=c1nc(NCCc2ccccc2Cl)c2ccccc2[nH]1", "Potency": "inactive"},
      {"compound": "N#Cc1ccc(NC(=O)CCCc2cccs2)cc1", "Potency": "inactive"},
      {"compound": "N#CCCn1cc(-c2csc(NC3CCCC3)n2)c2ccccc21", "Potency": "active: 6.31 µM"},
      {"compound": "O=C(c1ccc(Cn2cc(Cl)cn2)cc1)N1CCN(c2ccccc2)CC1", "Potency": "inconclusive: 39.8 µM [inhibitor, partial curve, poor fit]"},
      {"compound": "COc1cc(/C=N/Nc2cccc(C)c2)ccc1OC(=O)c1cccs1", "Potency": "inconclusive: 44.7 µM [inhibitor, partial curve, poor fit]"},
      {"compound": "COc1ccc(NC(=O)Nc2cccc(-c3ccc(N4CCOCC4)nn3)c2)cc1", "Potency": "inconclusive: 3.55 µM [inhibitor, full curve]"},
      {"compound": "CCCN(CCO)Cc1ccc(Br)cc1", "Potency": "inconclusive: 0.562 µM [inhibitor, full curve, poor fit]"},
      {"compound": "COc1ccc(-c2nn(-c3ccccc3)cc2C(=O)NCC(C(C)C)N2CCOCC2)cc1", "note": "(centres undefined)", "Potency": "inactive"},
      {"compound": "O=C(CCl)c1cc2c3c(c1)CC(=O)N3CCC2", "Potency": "inconclusive: 50.1 µM [inhibitor, partial curve, poor fit]"},
      {"compound": "Cc1n[nH]c(=S)n1-c1ccccc1", "Potency": "inconclusive: 50.1 µM [inhibitor, partial curve, poor fit]"},
      {"compound": "O=C(O)CCCCCN1C(=O)/C(=C\\c2ccncc2)SC1=S", "Potency": "inconclusive: 44.7 µM [inhibitor, partial curve, poor fit]"},
      {"compound": "CCc1ccccc1NC(=O)c1ccc2c(O)c(S(=O)(=O)c3ccccc3)c(=O)[nH]c2c1", "Potency": "inconclusive: 100 µM [inhibitor, partial curve, poor fit]"},
      {"compound": "Cc1ccc(NS(=O)(=O)c2c(C(=O)N3CCOCC3)c(C)n(C)c2C)cc1C", "Potency": "inactive"},
      {"compound": "Cc1ccc(S(=O)(=O)N2CCCN(C)c3nc4ccccc4nc32)cc1", "Potency": "inconclusive: 22.4 µM [inhibitor, partial curve]"},
      {"compound": "Cc1nn(-c2ccccc2)c(OC(=O)C(C)C)c1Sc1ccccc1", "Potency": "inconclusive: 6.31 µM [inhibitor, partial curve, poor fit]"},
      {"compound": "O=C(O)c1ccc(NC(=O)c2cn(-c3ccccc3)nc2-c2ccc(Cl)cc2)cc1", "Potency": "inconclusive: 79.4 µM [inhibitor, partial curve, poor fit]"},
      {"compound": "CCOC(=O)C(CC)Sc1ncnc2nc[nH]c12", "note": "(centres undefined)", "Potency": "inconclusive: 50.1 µM [inhibitor, partial curve, poor fit]"}
    ]}
  ]
}
